Two molecules from PMC5122980 can be followed below.

Amino acid sequences for entries named in this document (tags omitted). A change or cut given only in a name is not applied to a line headed by its entry.
UniProt P05627: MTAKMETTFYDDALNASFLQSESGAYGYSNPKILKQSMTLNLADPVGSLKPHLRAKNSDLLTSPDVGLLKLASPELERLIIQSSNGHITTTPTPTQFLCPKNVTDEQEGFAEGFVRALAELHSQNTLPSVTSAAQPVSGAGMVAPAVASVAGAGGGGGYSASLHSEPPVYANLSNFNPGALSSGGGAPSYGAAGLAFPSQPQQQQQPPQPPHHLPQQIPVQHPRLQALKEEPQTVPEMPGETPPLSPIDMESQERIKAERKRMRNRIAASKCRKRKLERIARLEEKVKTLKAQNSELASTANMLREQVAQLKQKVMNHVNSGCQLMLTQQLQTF
UniProt P11688: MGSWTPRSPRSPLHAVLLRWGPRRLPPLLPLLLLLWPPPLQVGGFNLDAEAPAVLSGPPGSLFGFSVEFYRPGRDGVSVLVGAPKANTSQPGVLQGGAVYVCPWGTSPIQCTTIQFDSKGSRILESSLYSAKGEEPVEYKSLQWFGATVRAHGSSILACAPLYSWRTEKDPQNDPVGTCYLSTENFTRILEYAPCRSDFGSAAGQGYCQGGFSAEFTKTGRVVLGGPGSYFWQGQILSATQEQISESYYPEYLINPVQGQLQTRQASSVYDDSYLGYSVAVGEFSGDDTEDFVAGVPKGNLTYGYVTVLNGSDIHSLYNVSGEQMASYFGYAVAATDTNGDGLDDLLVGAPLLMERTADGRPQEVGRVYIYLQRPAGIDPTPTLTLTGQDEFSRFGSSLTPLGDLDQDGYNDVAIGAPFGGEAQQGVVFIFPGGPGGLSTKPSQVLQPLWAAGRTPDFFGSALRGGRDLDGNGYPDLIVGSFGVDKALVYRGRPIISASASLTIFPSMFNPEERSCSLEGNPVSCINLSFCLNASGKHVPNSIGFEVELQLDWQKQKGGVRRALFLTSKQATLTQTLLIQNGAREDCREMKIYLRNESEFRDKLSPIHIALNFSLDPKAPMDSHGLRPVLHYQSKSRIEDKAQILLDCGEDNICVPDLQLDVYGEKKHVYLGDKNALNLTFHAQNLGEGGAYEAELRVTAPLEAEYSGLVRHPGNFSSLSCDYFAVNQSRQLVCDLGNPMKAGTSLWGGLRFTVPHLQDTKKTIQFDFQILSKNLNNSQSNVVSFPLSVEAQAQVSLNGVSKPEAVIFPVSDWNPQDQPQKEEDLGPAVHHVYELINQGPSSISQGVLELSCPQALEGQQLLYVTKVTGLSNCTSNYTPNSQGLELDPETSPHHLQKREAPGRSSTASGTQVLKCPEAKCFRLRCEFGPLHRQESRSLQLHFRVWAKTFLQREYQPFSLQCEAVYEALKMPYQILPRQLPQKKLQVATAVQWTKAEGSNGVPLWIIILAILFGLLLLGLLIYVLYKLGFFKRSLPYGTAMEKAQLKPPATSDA
UniProt P01101: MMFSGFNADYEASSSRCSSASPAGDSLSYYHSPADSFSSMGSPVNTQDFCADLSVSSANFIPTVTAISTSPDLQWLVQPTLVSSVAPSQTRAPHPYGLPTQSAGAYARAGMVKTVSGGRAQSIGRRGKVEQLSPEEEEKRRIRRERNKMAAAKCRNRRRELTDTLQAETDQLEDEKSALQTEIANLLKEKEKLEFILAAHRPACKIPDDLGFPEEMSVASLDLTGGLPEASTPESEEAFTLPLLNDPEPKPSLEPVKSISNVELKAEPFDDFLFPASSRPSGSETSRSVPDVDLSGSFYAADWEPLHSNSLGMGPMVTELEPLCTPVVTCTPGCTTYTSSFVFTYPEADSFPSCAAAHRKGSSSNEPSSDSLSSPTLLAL
UniProt P09055: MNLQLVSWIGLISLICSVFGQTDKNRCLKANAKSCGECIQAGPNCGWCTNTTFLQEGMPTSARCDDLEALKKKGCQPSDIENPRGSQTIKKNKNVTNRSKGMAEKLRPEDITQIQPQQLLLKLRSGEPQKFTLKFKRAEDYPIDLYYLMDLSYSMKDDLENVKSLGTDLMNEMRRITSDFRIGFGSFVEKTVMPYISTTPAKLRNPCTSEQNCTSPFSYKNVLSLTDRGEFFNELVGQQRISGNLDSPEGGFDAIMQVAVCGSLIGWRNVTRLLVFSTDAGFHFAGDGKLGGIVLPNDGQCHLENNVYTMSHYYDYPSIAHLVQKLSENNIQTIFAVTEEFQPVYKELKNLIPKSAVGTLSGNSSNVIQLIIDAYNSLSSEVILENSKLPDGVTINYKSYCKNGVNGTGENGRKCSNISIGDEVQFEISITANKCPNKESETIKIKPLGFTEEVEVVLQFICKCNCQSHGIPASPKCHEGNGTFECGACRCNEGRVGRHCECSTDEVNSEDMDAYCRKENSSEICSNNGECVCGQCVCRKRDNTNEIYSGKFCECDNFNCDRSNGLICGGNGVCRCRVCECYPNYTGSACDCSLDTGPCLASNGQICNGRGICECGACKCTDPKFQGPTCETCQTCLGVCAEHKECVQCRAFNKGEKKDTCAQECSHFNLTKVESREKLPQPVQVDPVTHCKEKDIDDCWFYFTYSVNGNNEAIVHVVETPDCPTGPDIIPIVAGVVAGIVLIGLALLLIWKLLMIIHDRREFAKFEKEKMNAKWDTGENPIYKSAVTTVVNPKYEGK

Results are given in words; binding and its absence hold for the method and conditions named. Binding seen in cells or lysates may run through a third protein. Some entries that bind do so weakly or less than the wild type.

The target in assay [1] is T1, Flag-Jun-α5 cyto (mouse) (UniProt P05627+P11688). The assay is described as follows: pull-down; mixture of E. coli lysate supernatants of Flag-Jun-α5 and Myc-Fos-β1 incubated with ANTI-FLAG M2 Affinity Gel 2 h at 4 °C, washed three times with TBS; cytotails revealed by anti-Flag and anti-Myc blots.
In another assay the target is Flag-Fos-β1 cyto (mouse) (UniProt P01101+P09055). Nature of the assay: pull-down; recombinant Flag-tagged integrin cytotails (alone or Jun-Fos dimerized) held on ANTI-FLAG M2 Affinity Gel, washed with TBS; 1 mg mouse fibroblast lysate (50 mM Tris-HCl pH 7.5, 150 mM NaCl, 1% Triton X-100) added for 2 h at 4 °C; western blot; only the target purified. (In western blotting, separated proteins are transferred to a membrane and probed.)

Assay [2] concerns the target T1, Flag-Jun-α5 cyto (mouse). The assay is described as above.

For “Myc-Fos-β1 (from UniProt P01101 161-200; P09055 752-798) (domain or fragment)”, in the assay with Flag-Jun-α5 cyto (mouse) [1], the binding result is recorded as “binds”.

B1: kindlin-2 (protein, UniProt Q8CIB5 1-680)
chain: MALDGIRMPDGCYADGTWELSVHVTDLNRDVTLRVTGEVHIGGVMLKLVEKLDVKKDWSDHALWWEKKRTWLLKTHWTLDKCGIQADAKLQFTPQHKLLRLQLPNMKYVKVKVNFSDRVFKAVSDICKTFNIRHPEELSLLKKPRDPTKKKKKKLDDQSEDEALELEGPLIMPGSGSIYSSPGLYSKTMTPTYDAHDGSPLSPTSAWFGDSALSEGNPGILAVSQPVTSPEILAKMFKPQALLDKAKTNQGWLDSSRSLMEQDVKENEALLLRFKYYSFFDLNPKYDAIRINQLYEQAKWALLLEEIECTEEEMMMFAALQYHINKLSIMTSENHLNNSDKEVDEVDAALSDLEITLEGGKTSTILGDITSIPELADYIKVFKPKKLTLKGYKQYWCTFKDTSISCYKSREESSGTPAHQLNLRGCEVTPDVNISGQKFNIKLLIPVAEGMNEIWLRCDNEKQYAHWMAACRLASKGKTMADSSYNLEVQNILSFLKMQHLNPDPQLIPDQITTDVNPECLVSPRYLKKYKSKQITARILEAHQNVAQMSLIEAKMRFIQAWQSLPEFGITHFIARFQGGKREELIGIAYNRLIRMDASTGDAIKTWRFSNMKQWNVNWEIKMVTVEFADEVRLSFICTEVDCKVVHEFIGGYIFLSTRAKDQNESLDEEMFYKLTSGWV
For the molecule B1, the binding entry is “binds” in the assay with Flag-Fos-β1 cyto (mouse) and “no binding” with Flag-Jun-α5 cyto (mouse) [2].
